# Source: the supplement of paper PMC3334620
# Over roughly 33,000 sequences, “E-score (-0.5 to 0.5)” has its median near -0.016; the highest 2% begin near 0.3. Some of the results follow.
# Biological target: T1, Yer184c (UniProt P39961)
# T1 sequence: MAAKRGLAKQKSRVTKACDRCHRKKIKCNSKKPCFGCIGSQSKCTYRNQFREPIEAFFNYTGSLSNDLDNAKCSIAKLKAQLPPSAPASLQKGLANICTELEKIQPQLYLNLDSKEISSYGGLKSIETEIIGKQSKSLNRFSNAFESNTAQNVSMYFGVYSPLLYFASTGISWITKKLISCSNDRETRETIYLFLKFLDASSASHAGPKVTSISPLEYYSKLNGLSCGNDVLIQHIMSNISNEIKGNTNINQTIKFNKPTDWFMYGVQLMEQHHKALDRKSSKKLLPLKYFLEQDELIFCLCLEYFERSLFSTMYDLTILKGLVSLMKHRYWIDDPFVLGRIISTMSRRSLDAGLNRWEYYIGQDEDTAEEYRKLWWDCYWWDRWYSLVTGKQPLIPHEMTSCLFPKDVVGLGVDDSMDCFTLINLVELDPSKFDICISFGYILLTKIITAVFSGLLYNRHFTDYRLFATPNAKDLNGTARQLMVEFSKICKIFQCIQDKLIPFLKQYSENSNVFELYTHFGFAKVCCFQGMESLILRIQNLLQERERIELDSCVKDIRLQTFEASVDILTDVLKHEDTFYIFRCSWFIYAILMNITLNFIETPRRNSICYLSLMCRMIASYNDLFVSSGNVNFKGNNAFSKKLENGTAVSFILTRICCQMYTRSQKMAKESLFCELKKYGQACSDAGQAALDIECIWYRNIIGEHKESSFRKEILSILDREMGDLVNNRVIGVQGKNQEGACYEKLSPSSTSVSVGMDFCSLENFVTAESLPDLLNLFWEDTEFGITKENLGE
# Assay: PBM E-score (8-mer binding enrichment) (E-score (-0.5 to 0.5)); higher = stronger / more preferred TF binding
# Conditions: protein concentration: 100 nM; construct: GST-full length
# Procedure: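 Universal 'all 10-mer' protein binding microarrays (Agilent AMADID 015681) probed with GST-tagged S. cerevisiae TFs (full-length or DBD) made by in vitro transcription/translation (PURExpress), about 100-200 nM. Bound TF was detected with fluorescent anti-GST. Each ungapped 8-mer (which stands for itself and its reverse complement) is scored by the PBM enrichment score (E-score), a modified Wilcoxon-Mann-Whitney statistic from -0.5 to +0.5, computed with the Universal PBM Analysis Suite. Scale: above 0.35 generally sequence-specific binding.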
row,Sequence,PBM E-score
1,CGCCAGGC,-0.0259
2,CTTTTCCA,-0.0613
3,ACTCCGCT,-0.179
4,AGTACTCG,0.154
5,AAGTGAAG,-0.191
6,AAACGGCT,0.0042
7,ATGGAGTG,-0.287
8,ACTATCAT,0.109
9,TAGGGGAA,-0.226
10,ACAGTCCC,-0.219
11,GCATGCAC,-0.0845
12,CCGAATCA,0.233
13,GCCATTAA,0.0964
14,GCGTTATA,-0.134
15,GACTCCCA,-0.249
16,TACGTGCA,-0.0962
17,CACATCAA,0.106
18,GACACGAA,-0.0596
19,GGGTCGTA,-0.106
20,CATGGGTC,-0.166
21,GAATCAAC,0.189
22,AGCTCTAG,-0.102

row,Sequence,PBM E-score
1,CCTTGAAG,-0.104
2,ACCCCATA,-0.0964
3,AGAAGGAT,-0.289
4,ATGGGCCC,-0.154
5,CAACGGAC,0.261
6,CTTCGTGC,0.0236
7,AGGGCGTC,-0.0854
8,TCCCGACA,0.00216
9,AGACTTCA,-0.141
10,AATAAGAA,0.252
11,AAAGAATA,0.0611
12,GTCCTCTA,-0.198
13,TAGCCTCA,-0.0571
14,GGCGACTA,-0.13
15,CTCAATCC,0.11
16,ACGCCAGC,-0.168
17,ATTTTACA,-0.13
18,CTCCCCTA,-0.121
19,CGCTTGCA,-0.0818
20,CGCCGCAG,-0.0397
21,AAAACACC,0.0588
22,ACGACAAA,0.252

row,Sequence,PBM E-score
1,CTTCAGCC,-0.0846
2,ACGTAGCG,-0.237
3,TACCACAA,0.168
4,AGCAGGCA,-0.248
5,TCCTAACA,0.0715
6,AGTCGATC,-0.085
7,AATTGGTA,0.00848
8,CCATTAGC,-0.16
9,GCTGTCTA,-0.0379
10,CGATTCAG,0.0265
11,CAAGGTCG,-0.272
12,AAGAGTCT,-0.24
13,CGAGTTAA,0.161
14,CACTGAAG,0.0984
15,CGGGCCTC,0.0573
16,ACCGAACC,0.0575
17,ATGCTAGA,-0.0395
18,GGCGTATA,-0.0214
19,AAGTTATA,0.232
20,ACGGAGAC,0.192
21,GCTAGCGA,-0.147
22,ACAAAGCG,0.0829

# In a second layout: entries from further up.
row | Sequence | PBM E-score
4 | AGCAGGCA | -0.248
9 | GCTGTCTA | -0.0379
10 | CGATTCAG | 0.0265
21 | GCTAGCGA | -0.147

# (cont.)

row,Sequence,PBM E-score
1,GATTAACA,0.2
2,ATGGATGG,-0.177
3,CGGCTCGA,0.291
4,ATTACCGG,0.22
5,TCTAGTAA,0.0542
6,CATCCTGG,-0.0767
7,ACAGCCGT,0.126
8,CGTAGGAA,-0.123
9,ATTAGCAG,-0.021
10,AGTTTCGA,-0.0388
11,CCATTGGC,-0.0903
12,AGACCTGG,-0.297
13,TCATTAGA,0.0435
14,TCGCGCCA,-0.0517
15,ATTACTAC,-0.0348
16,ATGCTTTC,0.0492
17,AAAAGAAG,0.148
18,GGTATTTA,0.0683
19,ACGGACCG,0.193
20,GAACTTGA,0.239
